{"source": "PubChem BioAssay AID330", "about": "(DTP/NCI, 2004)", "tested_on": "P388 leukemia ip, CD2F1 mice, survival T/C", "assay": "NCI In Vivo Anticancer Drug Screen. Data for tumor model P388 Leukemia (intraperitoneal) in CD2F1 (CDF1) mice", "conditions": "T/C endpoint: median survival time, higher T/C = longer survival", "key": {"[1]": {"conditions": "dose: 50.0 mg/kg/injection, schedule: Q01DX009 (ip), vehicle: saline with Tween-80"}, "[2]": {"conditions": "dose: 25.0 mg/kg/injection, schedule: Q01DX009 (ip), vehicle: saline"}, "[3]": {"conditions": "dose: 50.0 mg/kg/injection, schedule: Q01DX009 (ip), vehicle: saline"}}, "note": "The list is a part of this screen's results and no random one: it gathers tests that were run many times, whatever their T/C, doses with no T/C, and many T/C values between a quarter and a half above the control. Further doses and runs are listed elsewhere. T/C gives the treated animals as a percentage of the vehicle group. Some doses have a count of surviving animals in place of a T/C: the source files T/C as zero there, which appears to mark a toxic dose or a test without result, not a measured value. Some survivor counts are full or nearly so, which does not show that the dose was tolerated: the source hardly ever lists a survival T/C far under the control, and the zero likely stands for such cases as well. Survivors were counted at the toxicity check, usually on the fifth day, unless a day is given; later deaths do not show. Schedules are NCI's codes, read here as Q, the interval in days (D) or hours (H), X, the number of doses. Some entries were tested several times; their values stand side by side, smallest first. Where survival is the endpoint, the PubChem record calls one and a half times the control and up active, and a quarter to a half above the control has no call in these data; cut-offs in other NCI protocols can differ. Some T/C values carry the count of animals alive at the toxicity check (mostly the fifth day); where none is given, no animal had died by that day.", "data": [{"smiles": "Cc1c2ccncc2c(C)c2c1[nH]c1ccc(OCCN(C)C)cc12", "values": [{"measurement": "survivor count", "setting": "dose: 100.0 mg/kg/injection, schedule: Q04DX002 (ip), vehicle: water", "value": "0 of 6"}, {"measurement": "survivor count", "setting": "dose: 200.0 mg/kg/injection, schedule: Q04DX002 (ip), vehicle: water", "value": "0 of 6"}]}, {"smiles": "CC(C)[C@@H](C)/C=C/[C@@H](C)[C@H]1CC[C@@H]2[C@]1(C)CC[C@H]1[C@]23C=C[C@]2(C[C@@H](O)CC[C@]12C)OO3", "values": [{"measurement": "survivor count", "setting": "dose: 12.5 mg/kg/injection, schedule: Q01DX005 (ip), vehicle: Klucel (hydroxypropylcellulose) (HPC)", "value": "6 of 6"}]}, {"smiles": "COc1cc(/C=N/Nc2ccc([N+](=O)[O-])cc2)cc(OC)c1OC", "values": [{"measurement": "survivor count", "setting": "dose: 200.0 mg/kg/injection, schedule: Q04DX003 (ip), vehicle: saline with Tween-80", "value": "6 of 6"}]}, {"smiles": "CNC(=S)N/N=C(\\C)c1ccccn1", "values": [{"measurement": "survivor count", "setting": "dose: 25.0 mg/kg/injection, schedule: Q01DX009 (ip), vehicle: saline with Tween-80", "value": "3 of 6"}, {"measurement": "T/C", "setting": "[1]", "value": "130 % of control [4 of 6 alive]"}, {"measurement": "survivor count", "setting": "[1]", "value": "0 of 6 and 3 of 6"}, {"measurement": "survivor count", "setting": "dose: 100.0 mg/kg/injection, schedule: Q01DX009 (ip), vehicle: saline with Tween-80", "value": "0 of 6 and 2 of 6"}, {"measurement": "survivor count", "setting": "dose: 200.0 mg/kg/injection, schedule: Q01DX009 (ip), vehicle: saline with Tween-80", "value": "0 of 6"}]}, {"smiles": "CC[N+](C)(CC)C[Si](C)(C)c1ccccc1", "values": [{"measurement": "survivor count", "setting": "dose: 100.0 mg/kg/injection, schedule: Q01DX005 (ip), vehicle: saline", "value": "0 of 6"}, {"measurement": "survivor count", "setting": "dose: 200.0 mg/kg/injection, schedule: Q01DX005 (ip), vehicle: saline", "value": "0 of 6"}]}, {"smiles": "CN(C)CCCNc1cccc2c1C(=O)c1c(NCCCN(C)C)cccc1C2=O", "values": [{"measurement": "survivor count", "setting": "dose: 50.0 mg/kg/injection, schedule: Q01DX009 (ip), vehicle: water", "value": "6 of 6"}, {"measurement": "survivor count", "setting": "dose: 100.0 mg/kg/injection, schedule: Q01DX009 (ip), vehicle: water", "value": "6 of 6"}, {"measurement": "survivor count", "setting": "dose: 200.0 mg/kg/injection, schedule: Q01DX009 (ip), vehicle: water", "value": "1 of 6"}]}, {"smiles": "CCCCCCCCCCC[CH2][Sn](=[S])[CH2]CCCCCCCCCCC", "values": [{"measurement": "T/C", "setting": "[2]", "value": "89 and 100 % of control"}, {"measurement": "survivor count", "setting": "[2]", "value": "6 of 6"}, {"measurement": "T/C", "setting": "[3]", "value": "91, 92, 95, 101 % of control"}, {"measurement": "survivor count", "setting": "[3]", "value": "6 of 6"}, {"measurement": "T/C", "setting": "dose: 100.0 mg/kg/injection, schedule: Q01DX009 (ip), vehicle: saline", "value": "89 [5 of 6 alive], 93, 95, 103, 109 % of control"}, {"measurement": "T/C", "setting": "dose: 200.0 mg/kg/injection, schedule: Q01DX009 (ip), vehicle: saline", "value": "89, 92, 95, 96, 133 % of control"}]}, {"smiles": "N=C=S.N=C=S.O=[N+]([O-])O.[Co+3].[NH2-].[NH2-].[NH2-].[NH2-]", "values": [{"measurement": "survivor count", "setting": "dose: 100.0 mg/kg/injection, schedule: Q01DX009 (ip), vehicle: Klucel (hydroxypropylcellulose) (HPC)", "value": "0 of 6"}, {"measurement": "survivor count", "setting": "dose: 200.0 mg/kg/injection, schedule: Q01DX009 (ip), vehicle: Klucel (hydroxypropylcellulose) (HPC)", "value": "0 of 6"}]}]}
